Measured values published in US20240254209A1.
Positions count from the first letter of the chain named. Results are given in words; binding and its absence hold for the method and conditions named. Some binding calls cover weakened binding; strength is not graded here. Tags and fused reporters may be left off the sequences shown.

T1: peanut allergen Ara h 6 (peanut (Arachis hypogaea)) (UniProt Q647G9)
T1 sequence (looked up): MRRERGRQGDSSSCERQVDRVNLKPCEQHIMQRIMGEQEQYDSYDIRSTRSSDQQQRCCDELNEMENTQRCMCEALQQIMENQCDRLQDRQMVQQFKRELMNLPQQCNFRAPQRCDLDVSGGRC

T2: peanut allergen Ara h 2 (peanut (Arachis hypogaea)) (UniProt Q6PSU2)
T2 sequence (looked up): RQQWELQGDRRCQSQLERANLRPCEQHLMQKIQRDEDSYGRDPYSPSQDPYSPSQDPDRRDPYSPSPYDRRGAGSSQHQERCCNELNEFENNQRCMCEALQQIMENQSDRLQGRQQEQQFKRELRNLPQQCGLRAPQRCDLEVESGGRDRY

B1: human IgE mAb 26A5 (antibody, V domains shown)
VH: QVQLVQSGSELRKPGASVKVSCKASGYTFTKYGMNWVRQAPGQGLEWMGWINTNTAKPTYAQDFTGRFVFSLDTSVNTAYLEISGLKAEDTAVYYCATDGSEGSWGQGTLVTVSS
VL: DIQMTQSPSTLSASVGDRVTITCRASQSIGTWLAWHQQKPGTAPKVLIYKASNLKSGVPSRFSGSGSGTDFTLTISSLQPDDVATYYCQQYNTYSGTFGQGTRVEIK
B2: human IgE mAb 11F10 (antibody, V domains shown)
VH: EVQLVESGGGLVQPGRSLRLSCAASGFTFDDYTMHWVRQAPGKGLEWVSSIRWNSGNLDYADSVKGRFTISRDNARHSLYLQMNSLRAEDTALYYCVKDNGLRTLDFWGQGTLVTVSS
VL: DIVMTQSPLSLPVTPGEPASISCRSSQSLLHRNGYNYLDWYLQKPGQSPQLLISLASNRASGVPDRFSGSGSGTDFTLKISRVEAEDVGVYYCMQALQTWTFGQGTKVELK
B3: human IgE mAb 15B8 (antibody, V domains shown)
VH: QVQLVESGGRVVQPGESLRLSCETSGFPFHDHGMHWVRQAPGKGLEWVAFIRFDSTSKYTSDSVRGRFSISRDNSKSTLFLQMNNLRREDTAIYYCARDANARFGVMIMAHWGQGTLVTVSS
VL: DIQLTQSPSSLSASVGDRVTITCQASQDIGHYLNWYLQKPGQAPQVLIYDASNLVTGVPSRFSGSGSGTHFTFTISSLQPEDFGTYYCHQHEKLYSISFGQGTRLDIK
B4: human IgE mAb 13D9 (antibody, V domains shown)
VH: QVQLVESGGGLVKPGGSLRLSCVASGFTFSDFYMSWIRQAPGKGLEWVSYMSATGGNIYYADSMKGRLTISRDNTKNSLFLQMNSLRADDTALYYCARRKFGAGSAIFDHWSQGTLVTVSS
VL: SYELTQPPSVSVSPGQTASVTCSGDKLGERYVSWYQQKAGQSPDLVIYQTNQRPSGIPERFSGSDSGNTATLTISGTQGLDEADYYCLTWDRGTPVFGTGTKVTVL
B5: human IgE mAb 16A8 (antibody, V domains shown)
VH: QVQLVQSGPDVRKPGATVKVSCQTSGYRFTDYEMNWVRQAPGQGLEWIGLINPHSGDTAYAQKFQGRVTMTSDTSDSTVYLELSGLTPDDTAVYYCARSQGTFEVYYFVSWGQGSLVTVSS
VL: SYVLTQPPSMSVAPGTTASIPCGANNIAKKRVHWYRQKPGQAPVVVVSDDEDRSSVIPDRFSGSKSGDTATLTISRVEAGDEGDYYCQVWDSKTDHVVFGGGTKVTVL
B6: human IgE mAb 32G9 (antibody, V domains shown)
VH: QVQLVQSGPEVRKPGASVRVSCTTSGYTFIDYEMNWVRQAPGQGLEWMGLINPHSGDTGYAQKFQDRVTMTSDTSLSTAYLELSGLTSEDTAVYYCARSQGTFEVYYFVSWGQGSLVTVSS
VL: SYVLTQPPSVSVAPGKTASITCEAKNIVRKRVHWYRQKPGQAPVVVVSDDEDRSSVIPERVSGSKSGDTATLTISRVEAGDEADYYCQVWDSTTDQVVFGGGTKVTVL
B7: human IgE mAb 2F12 (antibody, V domains shown)
VH: B6 VH with R12K, R19K, T23Q, I30T, Q62L, D66G, L76K, A79V
VL: SYVLTQPPSVSVAPGKTATITCGANGIGRKRVHWYSQRPGQAPVVVVSDDDDRSSVNPERFSASKSGDTAALTITRVEAGDEADYYCQVWDSRTDQVVFGGGTKVTVL
B8: human IgE mAb 16G12 (antibody, V domains shown)
VH: EVQLVESGGGLVKPGGSLKLSCAASGFTFSDYYMYWVRQTPEKRLEWVATISDGGSYTYYPDNVKGRFTISRDNAKNTLYLQMSHLKSEDTAMYYCARDKGPIVPMPMDYWGQGTSVTVSS
VL: SYELTQPLSVSVSPGQTVNITCSGDKLGAKFTCWYQQKPGQSPILVLYQDTKRPPGIPERFSGSNSGNTATLTISGTQAMDEADYYCQAWESGIVAFGGGTKLTVV
B9: human IgE mAb 9H11 (antibody, V domains shown)
VH: QVQLMESGGGVVQPGGSLRLSCAASGFDFPGYGMHWVRQTPDKGLEWVAYIWYDARSEDYVDSVKGRFTISRDNSNNTLYLKMTDLRPQDTAMYYCAVGAPLEGYWGQGTRVTVSS
VL: DIQMTQSPSSLSASVGDKVTITCRASQNIADYLSWFQQKPGKAPKILIYAASTLQSGVPSRFSGSGSGTHFTLTISSLQPEDFASYFCQQSYTSPTWTFGQGTKVEVK
B10: human IgE mAb 5D7 (antibody, V domains shown)
VH: QVQLVQSGSELKKPGASVKVSCEASGYNLTTYAMNWVRQAPGQGLEWMGWINTNTGNPTYAQDFTGHFVFSLDTSVSTAYLQISSLKAEDTAVYYCARDFGERGNCVNGVCYGGYGMDVWGQGTTVTVSS
VL: DIQMTQSPSTLSASVGDRVTITCRASQSISRWLAWYQQKPGKVPKLLIYKASRLEGGVPSRFSGSGSGTEFTLTISSLQPDDFATYYCQEYTNYSGTFGQGTKVEIR
B11: human IgE mAb 26C3 (antibody, V domains shown)
VH: QVQLQESGPGLVKPSETLSLTCTVSGGSISSYYWTWIRQPAGKGLEWIGRIFTTGSTNYNPSLKSRVTMSVDTSKNQFSLHLTSVTAADTAVYYCARLRRVVPTAIWHFDLWGRGTRVTVSS
VL: QTVVTQEPSISVSPGGTVTLTCGLSSGAVSTSYFPSWYQQIPGQAPRTLIYGTNTRSSGVPDRFSGSILGNKAALTITGAQADDECDYYCVLYMDSGVMVFGGGTKLTVL
B12: IgG blocking mAb 13D9 (isotype-switched variant IgG) (antibody, V domains shown)
VH: B4 VH
VL: B4 VL
B13: IgG blocking mAb 16A8 (isotype-switched variant IgG) (antibody, V domains shown)
VH: B5 VH
VL: B5 VL

Biological target: T1, peanut allergen Ara h 6 (peanut (Arachis hypogaea))
Test: Phadia ImmunoCAP and/or ELISA and Western blot

binding, binds:
B1

Biological target: T2, peanut allergen Ara h 2 (peanut (Arachis hypogaea))
Test: Phadia ImmunoCAP and/or ELISA and Western blot

binding, binds:
B2
B3
B4
B5
B6
B7
B8
B9
B10
B11

Biological target: T2, peanut allergen Ara h 2 (peanut (Arachis hypogaea))
Test: told in the legend of FIG. 6

binding, binds:
B4

Biological target: T2, peanut allergen Ara h 2 (peanut (Arachis hypogaea))
Test: told in the legend of FIG. 9

binding, binds:
B2
B12
B13

Biological target: T2, peanut allergen Ara h 2 (peanut (Arachis hypogaea))
Test: allergen specificity as listed in Table D

binding, binds:
B2
B3
B4
B6
B8
B9
B10
B11

Biological target: T2, peanut allergen Ara h 2 (peanut (Arachis hypogaea))
Test: antigenic site mapping

binding, binds:
B4

Biological target: T2, peanut allergen Ara h 2 (peanut (Arachis hypogaea))
Test: specificity told in the text

binding, binds:
B3
B8
